From publication PMC7462549
No constants are given. Whether binding was seen depends on the method and setting. In cells and extracts the contact can be indirect. Here binding means that the protein was enriched with, or labelled near, the bait; the list need not be complete. Tags and fused reporters may be left off the sequences shown.

T1: TM6SF2-3×FLAG-tobacco etch virus (TEV) cleavage site-2×Protein A fusion protein (mouse) (UniProt Q8R1J1)
T1 sequence: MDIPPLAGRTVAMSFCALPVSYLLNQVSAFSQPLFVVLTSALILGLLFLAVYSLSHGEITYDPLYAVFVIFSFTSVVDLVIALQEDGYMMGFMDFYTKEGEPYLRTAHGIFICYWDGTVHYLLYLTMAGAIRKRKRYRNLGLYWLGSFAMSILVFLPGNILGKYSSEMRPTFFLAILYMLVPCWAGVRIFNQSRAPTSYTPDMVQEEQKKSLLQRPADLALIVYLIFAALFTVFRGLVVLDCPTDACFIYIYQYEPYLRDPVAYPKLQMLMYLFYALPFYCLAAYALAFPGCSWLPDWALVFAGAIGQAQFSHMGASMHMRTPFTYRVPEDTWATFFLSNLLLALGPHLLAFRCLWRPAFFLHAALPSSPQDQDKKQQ

B1: endogenous ERLIN2 of CRL1601 cells (protein, UniProt B5DEH2 1-339)
chain: MAQLGAVVAVASSFFCASLFSAVHKIEEGHIGVYYRGGALLTSTSGPGFHLMLPFITSYKSVQTTLQTDEVKNVPCGTSGGVMIYFDRIEVVNFLVPHAVYDIVKNYTADYDKALIFNKIHHELNQFCSVHTLQEVYIELFDQIDENLKLALQQDLTSMAPGLVIQAVRVTKPNIPEAIRRNYELMESEKTKLLIAAQKQKVVEKEAETERKKALIEAEKVAQVAEITYGQKVMEKETEKKISEIEDAAFLAREKAKADAECYTALKIAEANKLKLTPEYLQLMKYKAIASNSKIYFGKDIPNMFMDSAGGLGKQSEGLSDKLGFGLEDEPLETATKDN
B2: GPI transamidase component PIG-S (protein, UniProt Q5XI31 1-555)
chain: MATAGAAATDLEVVRGKRAALFFAAVAILLGLPLWWKTTETYRAPLPYSEISGLNALQLRLMVPVTVVFTRDSVPLDDQEKLPFTVVHEREIPLKYKMKIKCRFQKAYRRALEHEEEALSLGSVHEAEALLAEPEKQAEGSLTVYVISEHSSLLPQDMMSYIGPERTAIVRGMIHREAFNIIGRRIIHVAQAMSLTEDVLAAALADHLPEDKWSSDKRRPLKSSLGYEITFSLLNPDPKSHDVHWDIEEGVQRYVQPFLNRLSAAGNFSVDSQILYYAMLGVNPRFDPASSSYSLAMHSLPHVINPVESRLGSSAASLYPVLNFLLYVPELAHSPLYIQDKDGAPVATNAFHSPRWGGIMVYNVDPKIYNASELPVRVEVDMAQVMEVFLAQLRLLFGIAQPQVPPKCLLSGPKSEGLMTWELDRLLWARSVENLATATTTLTSLAQLLGKISNIVIKDDVASEVYRAVAAVQKAAEALALGHLSSAFAASQEAVTSSERAFFDPSLLHLLYFPDDQKFAIYIPLFLPMAVPILLSLVKIFLETHKSWKKPEKID

Molecular target: T1, TM6SF2-3×FLAG-tobacco etch virus (TEV) cleavage site-2×Protein A fusion protein (mouse)
Assay: affinity purification with mass spectrometry; tandem affinity purification from CRL1601/TM6SF2-TAP stable cells lysed in PBS, 5 mM EDTA, 5 mM EGTA, 1% digitonin; IgG beads 4°C 2 h, TEV cleavage, anti-FLAG beads, elution with FLAG peptides; Orbitrap mass spectrometry

Row | Binder | binding
1 | B1 | binds
2 | B2 | binds
